According to publication PMC12866838, “Targeting G3BP1 Condensate Topology Promotes Stress Granule Assembly via m^6A‐IGF2BP1 for Ischemic Stroke Rescue” (Advanced Science, 2025):
No constants are given. Whether binding was seen depends on the method and setting. In cells and extracts the contact can be indirect. Here binding means that the protein was enriched with, or labelled near, the bait; the list need not be complete.

Amino acid sequences for entries named in this document (tags omitted).
UniProt Q13283: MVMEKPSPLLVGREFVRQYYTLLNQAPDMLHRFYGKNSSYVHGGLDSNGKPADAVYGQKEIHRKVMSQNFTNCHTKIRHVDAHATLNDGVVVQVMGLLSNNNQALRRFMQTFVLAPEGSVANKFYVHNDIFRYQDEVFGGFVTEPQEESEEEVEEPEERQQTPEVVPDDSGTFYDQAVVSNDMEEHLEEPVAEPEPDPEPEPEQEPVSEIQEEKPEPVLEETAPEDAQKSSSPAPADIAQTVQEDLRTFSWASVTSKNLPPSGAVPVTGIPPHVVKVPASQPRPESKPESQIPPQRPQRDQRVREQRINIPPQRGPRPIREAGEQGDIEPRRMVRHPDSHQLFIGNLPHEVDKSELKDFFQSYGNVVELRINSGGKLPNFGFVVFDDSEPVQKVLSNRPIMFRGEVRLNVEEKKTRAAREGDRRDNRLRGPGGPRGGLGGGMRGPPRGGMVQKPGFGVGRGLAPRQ
UniProt P38919: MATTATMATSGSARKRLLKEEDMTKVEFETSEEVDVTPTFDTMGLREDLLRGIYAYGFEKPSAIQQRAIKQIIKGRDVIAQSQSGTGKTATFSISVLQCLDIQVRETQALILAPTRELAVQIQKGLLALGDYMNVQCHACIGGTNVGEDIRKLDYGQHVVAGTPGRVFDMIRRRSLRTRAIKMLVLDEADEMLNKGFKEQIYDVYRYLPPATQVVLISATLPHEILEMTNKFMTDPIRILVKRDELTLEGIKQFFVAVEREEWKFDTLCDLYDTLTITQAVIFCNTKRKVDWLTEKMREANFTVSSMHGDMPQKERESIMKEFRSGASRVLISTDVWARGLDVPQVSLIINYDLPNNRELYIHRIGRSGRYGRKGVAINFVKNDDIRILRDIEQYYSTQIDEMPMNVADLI
UniProt O00425: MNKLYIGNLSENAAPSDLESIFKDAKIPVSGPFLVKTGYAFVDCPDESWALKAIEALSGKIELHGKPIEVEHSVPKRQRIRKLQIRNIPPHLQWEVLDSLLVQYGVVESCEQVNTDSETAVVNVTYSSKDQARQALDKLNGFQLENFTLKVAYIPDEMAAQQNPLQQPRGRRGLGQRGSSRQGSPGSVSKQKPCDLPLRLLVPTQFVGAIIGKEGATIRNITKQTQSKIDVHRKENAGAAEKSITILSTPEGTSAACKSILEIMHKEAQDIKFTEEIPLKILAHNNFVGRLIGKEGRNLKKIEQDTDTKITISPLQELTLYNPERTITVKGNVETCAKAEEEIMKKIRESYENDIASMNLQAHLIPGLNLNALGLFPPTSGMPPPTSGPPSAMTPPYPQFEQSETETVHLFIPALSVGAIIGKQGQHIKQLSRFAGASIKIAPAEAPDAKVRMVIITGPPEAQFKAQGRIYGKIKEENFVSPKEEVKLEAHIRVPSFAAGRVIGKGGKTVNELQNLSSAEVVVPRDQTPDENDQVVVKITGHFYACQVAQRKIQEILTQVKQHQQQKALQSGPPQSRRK

Molecular target: HA–G3BP1 (human) (UniProt Q13283)
Test: affinity purification with mass spectrometry; SILAC-labelled HEK293T cells transfected with HA-G3BP1, treated with ICA (heavy) or DMSO (light); lysate on anti-HA magnetic beads at 4 °C overnight; SDS-PAGE, LC-MS/MS

Substance | binding
eukaryotic translation initiation factor 4A3 (from UniProt P38919 1-411) | binds
insulin-like growth factor 2 mRNA-binding protein 3 (from UniProt O00425 1-579) | binds
